Structures can show the parent of a compound that is named as a salt.
Legend:
[1] = biological target: T1, N-biotinyl-Aβ(1–42) (bioAβ42) oligomer assembly (Homo sapiens, UniProt P05067); format: biochemical; conditions: 1.56 to 50 μM; alone or in 1:1 / 1:1:1 mixtures
T1 construct: N-biotinyl Aβ(1–42) (bioAβ42) was purchased from Anaspec; purchased Anaspec (Fremont, CA, USA) AS-23523-05
Experimental: We first examined the effect of the synthesized 1,3- and 1,4-chalcone-donepezil hybrids 15a–15f and 16a–16f on the assembly of N-biotinyl-Aβ(1–42) (bioAβ42) monomers into oligomers. We quantified the assembly of bioAβ42 into soluble oligomers by using an ELISA assay in which the soluble oligomers were captured on NeutrAvidin^TM-coated ELISA plates and detected with streptavidin-horseradish peroxidase and colorimetric readout (Figure 3).
The plates were then stored in their blocked form at 4 °C prior to use for the oligomer assembly and dissociation assays.
The assembly of bioAβ42 into soluble oligomers was quantified with an ELISA assay in which the soluble oligomers were captured with the NeutrAvidin^TM coating the ELISA plates. The bound oligomers were detected with streptavidin-horseradish peroxidase (SA-HRP). […] Below, please find the details of the three steps (Steps 1–3) used for the oligomer assembly assay.
Step 1: Preparation of monomeric bioAβ42. For a low background, it was essential to rigorously pretreat the bioAβ42 peptide to convert (disaggregate) the multimeric species that form upon storage in the solid state, or even frozen in 1,1,1,3,3,3-hexafluoroisopropanol (HFIP) to monomers. […]
Step 3: Measurement of bioAβ42 oligomers. […] The absorbance of each well was read at 450 nm with a BioTek HT Synergy plate reader. […]

Sequences of proteins named here, by UniProt entry; tags and fusion partners are left off. Residues count along the entry.
UniProt P05067, 672-713: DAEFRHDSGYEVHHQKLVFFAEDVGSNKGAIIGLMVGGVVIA

[2] = biological target: T2, preformed bioAβ42 oligomers (Homo sapiens, UniProt P05067); test: bioAβ42 oligomer dissociation assay (NeutrAvidin ELISA); format: biochemical; conditions: 0.01 to 50 μM; ~18 h; alone or in 1:1 / 1:1:1 mixtures
T2 construct: N-biotinyl Aβ(1–42) (bioAβ42) was purchased from Anaspec; purchased Anaspec (Fremont, CA, USA) AS-23523-05
Experimental: Dissociation of preformed oligomers of bioAβ42 was measured by pretreating biotinylated oligomers with solvent controls or compounds for a period of time, capturing them with NeutrAvidin^TM on ELISA plates, and detecting the remaining bound oligomers with SA-HRP [77] as described above. Below, please find the details of the two steps (Steps 1 and 2) used for the oligomer dissociation assay.
Step 1: Preformed bioAβ42 oligomers (sufficient for 400 wells). In total, 1 μg of bioAβ42 peptide (1 mg/mL dissolved in HFIP) was pipetted into 20 μL of HFIP in a polypropylene microfuge tube, and dried to a thin film under a gentle air or N2 stream. The film was dissolved in 250 μL of DMSO and vortexed. […] After incubation at rt for 1 h with intermittent vortexing, 0.375 mL of 100 mM Tween 20 (10% v/v) in distilled H2O was added to make the final Tween 20 concentration 0.3% v/v. The preformed oligomers were mixed by inversion and aliquoted for storage at −75 °C. Note: Multiple freeze-thaw cycles should be avoided.
Step 2: Oligomer dissociation assay. […] Then, 25 μL of the preformed bio42 oligomers adjusted to 0.6% v/v Tween 20 was pipetted into each well of a polypropylene 96-well plate. […] The plates were sealed and shaken at 150 rpm overnight at rt. […] The oligomer content of that aliquot was measured as described for the bioAβ42 oligomer assembly assay. […]

Compound: COc1cc2c(cc1OC)C(=O)C(CC1CCN(Cc3ccccc3)CC1)C2 (centres unmarked) [Donepezil·HCl, reference compound]
- bioAβ42 oligomer assembly inhibition (in words) [1]: did not inhibit bioAβ42 assembly
- dissociation of preformed bioAβ42 oligomers (in words) [2]: did not dissociate the preformed oligomers

From article PMC6983213, “Combining Chalcones with Donepezil to Inhibit Both Cholinesterases and Aβ Fibril Assembly” (Molecules, 2019)
